One experiment concerns the target HA-tagged SOX10 (UniProt P56693). The experiment in a line: co-IP; flag-β-catenin and HA-SOX10 overexpressed in different ratios in HEK293T/17; lysate in IP buffer (50 mM Tris pH 8.0, 150 mM NaCl, 1 mM EDTA, 1% Triton X100, with Benzonase and 20 µM MG-132); anti-HA on Protein G Dynabeads, 2 h at 4 °C; western blot for β-catenin. (In general: A western blot detects proteins with antibodies after separation by electrophoresis.)

Amino acid sequences for entries named in this document (tags omitted).
UniProt P56693: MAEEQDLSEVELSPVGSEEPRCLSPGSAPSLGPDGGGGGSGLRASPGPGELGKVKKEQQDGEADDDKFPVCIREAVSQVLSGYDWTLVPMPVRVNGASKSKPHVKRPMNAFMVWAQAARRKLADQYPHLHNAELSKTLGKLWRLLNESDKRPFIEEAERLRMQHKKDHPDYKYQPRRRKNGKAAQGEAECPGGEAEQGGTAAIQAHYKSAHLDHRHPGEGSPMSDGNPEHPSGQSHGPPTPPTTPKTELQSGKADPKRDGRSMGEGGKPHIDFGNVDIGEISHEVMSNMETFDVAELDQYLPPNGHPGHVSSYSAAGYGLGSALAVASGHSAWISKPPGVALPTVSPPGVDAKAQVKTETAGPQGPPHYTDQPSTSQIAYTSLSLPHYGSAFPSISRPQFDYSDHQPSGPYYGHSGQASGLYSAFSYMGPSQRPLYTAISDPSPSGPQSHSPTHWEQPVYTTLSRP
UniProt P35222: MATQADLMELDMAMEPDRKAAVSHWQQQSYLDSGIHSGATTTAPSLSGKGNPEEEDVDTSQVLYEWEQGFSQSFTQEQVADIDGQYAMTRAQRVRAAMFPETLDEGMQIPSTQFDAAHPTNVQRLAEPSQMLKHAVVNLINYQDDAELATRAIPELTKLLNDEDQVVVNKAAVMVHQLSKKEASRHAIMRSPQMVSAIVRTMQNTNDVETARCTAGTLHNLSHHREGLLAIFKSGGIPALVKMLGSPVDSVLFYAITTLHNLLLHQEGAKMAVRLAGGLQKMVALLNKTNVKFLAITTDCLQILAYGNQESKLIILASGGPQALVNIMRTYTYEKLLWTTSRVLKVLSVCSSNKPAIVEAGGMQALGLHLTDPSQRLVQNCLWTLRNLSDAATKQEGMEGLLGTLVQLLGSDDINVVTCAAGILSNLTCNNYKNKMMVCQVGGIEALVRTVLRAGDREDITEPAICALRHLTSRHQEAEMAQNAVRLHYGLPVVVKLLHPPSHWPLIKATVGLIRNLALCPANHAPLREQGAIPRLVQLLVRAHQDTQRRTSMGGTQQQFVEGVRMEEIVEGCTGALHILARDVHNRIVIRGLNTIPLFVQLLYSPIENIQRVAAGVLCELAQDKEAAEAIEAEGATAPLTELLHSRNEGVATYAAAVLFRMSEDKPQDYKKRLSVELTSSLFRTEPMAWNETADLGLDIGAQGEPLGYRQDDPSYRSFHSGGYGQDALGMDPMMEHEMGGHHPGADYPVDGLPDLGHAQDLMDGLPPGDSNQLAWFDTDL

Experiment [1] deals with recombinant SOX10 protein (UniProt P56693). The experiment in a line: cross-linking; M010817 whole cell extract mixed with recombinant SOX10 at ratios 1/1, 1/5 and 1/10 after dialysis against PBS; cross-linked with DSS d0/d12 for 3 h at room temperature; SDS-PAGE, in-gel trypsin digestion, nLC Orbitrap MS (CovalX); only the target purified.

No constants are given. Whether binding was seen depends on the method and setting. In cells and extracts the contact can be indirect. Some results given as binding are weak or reduced against the parent protein; the word gives no strength.

As for “flag-tagged β-catenin (from UniProt P35222 1-781)”, the binding result in the experiment with HA-tagged SOX10 is reported as “binds”.

On to β-catenin (from UniProt P35222 1-781), for which the binding result in experiment [1] is reported as “binds”.

These data come from article PMC8076051.
